Results reported in the supplement of paper PMC7125110.
± gives the standard error. Many entries were measured with a wide error.

B1: glmS ribozyme (parent)
chain: AUAAAAGCGCCAGAACUACAGAAAUGUAGUUGACGAGGAGGAGGUUUAUCGAAUUUUCGGCGGAUGCCUCCAAA

Variants of: B1
Experiment: self-cleavage kobs at 160 uM GlcN6P; higher = faster cleavage; RNA array
Conditions: with glucosamine-6-phosphate
Summary of the method: (§1)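 Glucosamine-6-phosphate, from 40 μM to 10 mM in HEPES/KCl/Mg(OAc)2 buffer, was flowed over sequenced MiSeq chips carrying barcoded ribozyme variants transcribed in situ by E. coli RNA polymerase. A hybridised Cy3 probe tracked the variants at 37 °C as tiles were imaged over ~14 h. kobs, kcat and KM were obtained by fitting normalised per-tile medians to exponential decays and then applying weighted Michaelis–Menten fits across concentrations.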

| Variant | self-cleavage kobs at 160 uM GlcN6P |
| --- | --- |
| G29C C68G | 3.06e-05 ± 2.2e-05 s⁻¹ |
| C11U A14U C16U G32A G38U A53U C61U A64C | 5.57e-05 ± 3.2e-05 s⁻¹ |
| G29A G40C | 2.62e-05 ± 2.2e-05 s⁻¹ |
| G38U C50G | 3.52e-05 ± 2.3e-05 s⁻¹ |
| C8U G32U C34U U49G G60A C70G | 3.59e-05 ± 2.6e-05 s⁻¹ |
| U31A U56G C58G | 3.01e-05 ± 2e-05 s⁻¹ |
| A52G U69A | 6.3e-05 ± 3.4e-05 s⁻¹ |
| A14G C50A A64U C70U | 2.85e-05 ± 2.5e-05 s⁻¹ |
| A53U G66C | 3.5e-05 ± 2.6e-05 s⁻¹ |
| C10G C67G C68U | 3.64e-05 ± 2.9e-05 s⁻¹ |
| A12C U54G C68G | 6.54e-05 ± 3.7e-05 s⁻¹ |
| G32C G51U C70A | 3.39e-05 ± 2.8e-05 s⁻¹ |
| A15G C61U C68A | 2.38e-05 ± 2.3e-05 s⁻¹ |
| U31C U47A U56C | 3e-05 ± 1.6e-05 s⁻¹ |
| C34G U69A | 1.78e-05 ± 1.7e-05 s⁻¹ |
| A6U C34G U47G C67U C68A | 5.48e-05 ± 3.1e-05 s⁻¹ |

Some of the entries so far, field by field:
C11U A14U C16U G32A G38U A53U C61U A64C
  self-cleavage kobs at 160 uM GlcN6P = 5.57e-05 ± 3.2e-05 s⁻¹
G29A G40C
  self-cleavage kobs at 160 uM GlcN6P = 2.62e-05 ± 2.2e-05 s⁻¹
A53U G66C
  self-cleavage kobs at 160 uM GlcN6P = 3.5e-05 ± 2.6e-05 s⁻¹
C10G C67G C68U
  self-cleavage kobs at 160 uM GlcN6P = 3.64e-05 ± 2.9e-05 s⁻¹

Variants of: B1
Experiment: self-cleavage kobs at 10000 uM GlcN6P; higher = faster cleavage; RNA array
Conditions: with glucosamine-6-phosphate
Summary of the method: as §1

| Variant | self-cleavage kobs at 10000 uM GlcN6P |
| --- | --- |
| G29C C68G | 1.61e-05 ± 1.3e-05 s⁻¹ |
| C50G C67G | 1.09e-05 ± 9.9e-06 s⁻¹ |
| G38U C50G | 1.92e-05 ± 1.3e-05 s⁻¹ |
| A14U U46G G63A U65A C70G C71G | 2.57e-05 ± 2.2e-05 s⁻¹ |
| A39C C71G | 1.4e-05 ± 1.1e-05 s⁻¹ |
| G37A C58A | 1.6e-05 ± 1.2e-05 s⁻¹ |

Variants of: B1
Experiment: self-cleavage kobs at 40 uM GlcN6P; higher = faster cleavage; RNA array
Conditions: with glucosamine-6-phosphate
Summary of the method: as §1

| Variant | self-cleavage kobs at 40 uM GlcN6P |
| --- | --- |
| U46G U56C | 2.12e-05 ± 1.5e-05 s⁻¹ |
| C50G C67G | 1.59e-05 ± 1.1e-05 s⁻¹ |
| G37A C67U | 2.48e-05 ± 1.4e-05 s⁻¹ |
| G38U C50G | 2.69e-05 ± 1.4e-05 s⁻¹ |
| G32C G51U C70A | 4.46e-05 ± 2.3e-05 s⁻¹ |
| G38U G59U C68G | 3.38e-05 ± 2.3e-05 s⁻¹ |
| C70G C71A | 2.39e-05 ± 1.6e-05 s⁻¹ |
| A42G U46G U56C | 2.96e-05 ± 2.5e-05 s⁻¹ |
| C50G U57C | 1.76e-05 ± 1.7e-05 s⁻¹ |
| G29U G38C C58G C68A C71A | 4.64e-05 ± 3.1e-05 s⁻¹ |
| C50G C58U U65C | 3.27e-05 ± 2.2e-05 s⁻¹ |
| U47G C71G | 1.04e-05 ± 8.6e-06 s⁻¹ |

Variants of: B1
Experiment: self-cleavage kobs at 2500 uM GlcN6P; higher = faster cleavage; RNA array
Conditions: with glucosamine-6-phosphate
Summary of the method: as §1

| Variant | self-cleavage kobs at 2500 uM GlcN6P |
| --- | --- |
| C50G C67G | 1.36e-05 ± 8.5e-06 s⁻¹ |
| G32U U65A | 3.33e-05 ± 1.8e-05 s⁻¹ |
| U57G C68U C70A | 2.54e-05 ± 2.1e-05 s⁻¹ |
| U57A G63U C70A | 4.26e-05 ± 2.9e-05 s⁻¹ |
| U31A G51A C68G | 4.93e-05 ± 2.6e-05 s⁻¹ |
| A15U G21U U47A C67A C68U | 3.37e-05 ± 2.2e-05 s⁻¹ |
| U31C G37U G59U G60C | 0.00129 ± 0.00077 s⁻¹ |
| A12U C50U C71A | 3.26e-05 ± 2.1e-05 s⁻¹ |
| C16U C61A C70U | 2.98e-05 ± 2.9e-05 s⁻¹ |
| U49A A52G C68U | 2.83e-05 ± 2e-05 s⁻¹ |
| C16A A52U A53U U57A | 2.41e-05 ± 2.4e-05 s⁻¹ |
| G29C U30A A42G | 4.82e-05 ± 3.1e-05 s⁻¹ |
| A15G A42C | 2.01e-05 ± 1.6e-05 s⁻¹ |
| A39G U56A G59A | 2.77e-05 ± 2.2e-05 s⁻¹ |
| A15C A53C C68U | 3.24e-05 ± 1.7e-05 s⁻¹ |
| G21C G44A C71U | 3e-05 ± 1.9e-05 s⁻¹ |
| A52C C68G | 3.38e-05 ± 1.9e-05 s⁻¹ |
| A52U U57G | 2.12e-05 ± 1.9e-05 s⁻¹ |
| C50A A53C G63U C68G | 4.14e-05 ± 3e-05 s⁻¹ |

| Variant | self-cleavage kobs at 2500 uM GlcN6P |
| --- | --- |
| G32C G51U C70A | 3.74e-05 ± 3.6e-05 s⁻¹ |
| G40C U46C U56C | 2.56e-05 ± 1.6e-05 s⁻¹ |
| A14C C50G G62C | 4.55e-05 ± 2.7e-05 s⁻¹ |
| U31C U45A U65A C71A | 4.65e-05 ± 2.8e-05 s⁻¹ |
| G9C A48G C67G C68A | 8.29e-05 ± 4.4e-05 s⁻¹ |
| A12G U31G A39C U55A | 2.11e-05 ± 1.5e-05 s⁻¹ |
| C10U A12U C50A C68G | 3.5e-05 ± 2e-05 s⁻¹ |
| G7U A12C C50G C61A | 5.04e-05 ± 3.4e-05 s⁻¹ |
| C10G G38U U49G C58G A64C U65A C67U C68U | 4.75e-05 ± 2.5e-05 s⁻¹ |
| A6C A14U A15U C50G U56C | 3.63e-05 ± 2.7e-05 s⁻¹ |
| U54C C67A | 0.00348 ± 0.0018 s⁻¹ |
| U57A C61G C68U | 2.14e-05 ± 2.1e-05 s⁻¹ |
| A39C C71G | 1.37e-05 ± 1.3e-05 s⁻¹ |
| C50G G59C G63A | 0.00157 ± 0.00084 s⁻¹ |
| C16A U47C | 4.36e-05 ± 3.6e-05 s⁻¹ |
| G29A U49A A53G C68A | 2.8e-05 ± 2.8e-05 s⁻¹ |
| A53U G59U C70A | 5e-05 ± 3.3e-05 s⁻¹ |
| U56G C58A U65G | 3.13e-05 ± 1.7e-05 s⁻¹ |
| G37A C58A | 2.41e-05 ± 1.3e-05 s⁻¹ |

Variants of: B1
Experiment: self-cleavage kobs at 640 uM GlcN6P; higher = faster cleavage; RNA array
Conditions: with glucosamine-6-phosphate
Summary of the method: as §1

| Variant | self-cleavage kobs at 640 uM GlcN6P |
| --- | --- |
| G13C A53U | 1.12e-05 ± 1e-05 s⁻¹ |
| U57A G63U C70A | 2.97e-05 ± 3e-05 s⁻¹ |
| G38U C50G | 3.04e-05 ± 1.9e-05 s⁻¹ |
| U46G C50U U69A | 3.62e-05 ± 2.2e-05 s⁻¹ |
| A52G U69A | 5.45e-05 ± 2.8e-05 s⁻¹ |
| G29U G32A A53C | 2.03e-05 ± 1.5e-05 s⁻¹ |
| U55A C61A C68A | 2.94e-05 ± 2.8e-05 s⁻¹ |
| A14G C50A A64U C70U | 4.59e-05 ± 2.4e-05 s⁻¹ |
| G43A U54G | 2.3e-05 ± 1.4e-05 s⁻¹ |
| G63U A64U U69G C70G | 3.45e-05 ± 1.9e-05 s⁻¹ |
| A52U U57G | 3.12e-05 ± 1.9e-05 s⁻¹ |
| A14U U46G G63A U65A C70G C71G | 0.00046 ± 0.00025 s⁻¹ |
| A15C C68G | 2.28e-05 ± 1.4e-05 s⁻¹ |
| A12G A53U C67U | 2.71e-05 ± 1.9e-05 s⁻¹ |
| A39C G43U C68U | 1.65e-05 ± 1.6e-05 s⁻¹ |
| C10A G43U | 0.00365 ± 0.003 s⁻¹ |
| G29U G38C C58G C68A C71A | 5.98e-05 ± 4e-05 s⁻¹ |
| G7A U69A C71A | 4.66e-05 ± 2.8e-05 s⁻¹ |
| C34U G38U C50G | 1.85e-05 ± 1.8e-05 s⁻¹ |
| A53U G59U C70A | 3.77e-05 ± 3.1e-05 s⁻¹ |
